Laboratory results as given in the supplement of paper PMC10849652.
The other results are listed elsewhere or left out.

Sequences of proteins named here, by UniProt entry; tags and fusion partners are left off. A change or cut given only in a name is not applied to a line headed by its entry.
UniProt Q7Z406, whole entry, looked up: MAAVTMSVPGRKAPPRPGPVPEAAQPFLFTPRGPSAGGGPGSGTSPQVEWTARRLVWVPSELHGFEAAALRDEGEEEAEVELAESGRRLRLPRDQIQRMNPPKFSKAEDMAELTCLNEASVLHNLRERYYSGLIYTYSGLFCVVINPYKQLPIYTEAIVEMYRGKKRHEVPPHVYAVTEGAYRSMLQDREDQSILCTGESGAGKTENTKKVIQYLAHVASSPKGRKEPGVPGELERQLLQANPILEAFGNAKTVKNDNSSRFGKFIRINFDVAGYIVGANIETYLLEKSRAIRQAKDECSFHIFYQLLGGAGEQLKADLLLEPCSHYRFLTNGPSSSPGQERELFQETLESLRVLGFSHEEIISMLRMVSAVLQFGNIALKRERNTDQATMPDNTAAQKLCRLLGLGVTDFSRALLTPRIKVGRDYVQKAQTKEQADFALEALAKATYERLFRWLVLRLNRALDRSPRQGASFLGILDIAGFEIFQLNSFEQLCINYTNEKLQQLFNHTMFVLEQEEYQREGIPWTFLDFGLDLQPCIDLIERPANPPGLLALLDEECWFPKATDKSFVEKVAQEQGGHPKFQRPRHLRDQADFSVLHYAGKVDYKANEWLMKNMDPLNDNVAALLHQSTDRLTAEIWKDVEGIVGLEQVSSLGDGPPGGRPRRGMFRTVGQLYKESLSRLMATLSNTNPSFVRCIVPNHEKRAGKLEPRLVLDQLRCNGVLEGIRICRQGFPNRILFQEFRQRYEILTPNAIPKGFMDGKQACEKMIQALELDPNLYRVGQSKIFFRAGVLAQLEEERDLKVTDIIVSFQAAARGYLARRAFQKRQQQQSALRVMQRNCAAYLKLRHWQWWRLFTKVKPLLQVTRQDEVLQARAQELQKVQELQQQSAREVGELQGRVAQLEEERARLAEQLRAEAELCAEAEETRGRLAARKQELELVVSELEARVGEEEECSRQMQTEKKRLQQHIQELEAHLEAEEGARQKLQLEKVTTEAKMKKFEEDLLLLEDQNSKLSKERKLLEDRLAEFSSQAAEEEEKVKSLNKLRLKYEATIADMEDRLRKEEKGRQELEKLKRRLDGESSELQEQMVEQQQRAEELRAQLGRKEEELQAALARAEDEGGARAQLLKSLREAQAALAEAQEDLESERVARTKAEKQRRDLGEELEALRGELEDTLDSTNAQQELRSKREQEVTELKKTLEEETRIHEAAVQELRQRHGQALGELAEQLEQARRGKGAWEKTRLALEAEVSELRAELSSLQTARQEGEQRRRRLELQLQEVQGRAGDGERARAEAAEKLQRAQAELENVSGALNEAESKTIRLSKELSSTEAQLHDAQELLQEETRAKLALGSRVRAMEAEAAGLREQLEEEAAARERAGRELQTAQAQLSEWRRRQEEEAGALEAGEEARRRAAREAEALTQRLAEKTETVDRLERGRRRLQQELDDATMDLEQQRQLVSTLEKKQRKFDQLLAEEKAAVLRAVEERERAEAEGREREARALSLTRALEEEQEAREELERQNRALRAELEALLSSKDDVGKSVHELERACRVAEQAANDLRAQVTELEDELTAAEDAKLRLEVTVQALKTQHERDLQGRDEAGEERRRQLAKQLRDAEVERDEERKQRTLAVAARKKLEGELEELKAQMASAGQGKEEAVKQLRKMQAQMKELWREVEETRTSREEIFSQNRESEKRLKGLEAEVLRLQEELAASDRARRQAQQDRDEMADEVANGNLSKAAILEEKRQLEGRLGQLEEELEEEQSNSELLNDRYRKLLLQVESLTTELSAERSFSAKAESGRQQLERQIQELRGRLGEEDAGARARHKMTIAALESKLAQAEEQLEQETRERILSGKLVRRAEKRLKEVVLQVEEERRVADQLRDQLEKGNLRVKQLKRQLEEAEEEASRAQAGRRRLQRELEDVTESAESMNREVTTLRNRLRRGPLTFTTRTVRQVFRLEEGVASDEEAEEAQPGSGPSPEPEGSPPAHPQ
UniProt Q969V6: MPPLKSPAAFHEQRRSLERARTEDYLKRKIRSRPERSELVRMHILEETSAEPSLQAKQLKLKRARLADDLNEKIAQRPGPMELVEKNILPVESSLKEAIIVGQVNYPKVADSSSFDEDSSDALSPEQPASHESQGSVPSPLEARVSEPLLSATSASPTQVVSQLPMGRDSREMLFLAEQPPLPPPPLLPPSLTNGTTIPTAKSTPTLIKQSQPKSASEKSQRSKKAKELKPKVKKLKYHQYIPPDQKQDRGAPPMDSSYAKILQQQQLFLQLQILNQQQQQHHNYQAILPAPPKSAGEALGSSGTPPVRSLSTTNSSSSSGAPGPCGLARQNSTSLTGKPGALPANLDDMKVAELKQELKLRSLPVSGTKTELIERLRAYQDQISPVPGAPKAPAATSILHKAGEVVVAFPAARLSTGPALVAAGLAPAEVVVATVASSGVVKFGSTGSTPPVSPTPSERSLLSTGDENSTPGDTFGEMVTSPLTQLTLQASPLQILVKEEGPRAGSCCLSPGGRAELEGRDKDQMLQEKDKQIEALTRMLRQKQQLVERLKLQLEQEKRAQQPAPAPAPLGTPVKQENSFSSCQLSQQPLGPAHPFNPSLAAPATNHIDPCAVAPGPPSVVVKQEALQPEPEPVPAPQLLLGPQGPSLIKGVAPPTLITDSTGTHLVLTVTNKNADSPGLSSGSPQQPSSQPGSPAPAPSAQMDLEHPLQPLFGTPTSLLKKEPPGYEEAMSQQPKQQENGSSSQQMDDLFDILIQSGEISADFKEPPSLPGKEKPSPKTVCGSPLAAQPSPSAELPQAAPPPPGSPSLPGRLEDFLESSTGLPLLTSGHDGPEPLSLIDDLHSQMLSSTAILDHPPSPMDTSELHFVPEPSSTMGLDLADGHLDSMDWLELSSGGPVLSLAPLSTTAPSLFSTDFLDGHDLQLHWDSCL
UniProt Q7Z6M4: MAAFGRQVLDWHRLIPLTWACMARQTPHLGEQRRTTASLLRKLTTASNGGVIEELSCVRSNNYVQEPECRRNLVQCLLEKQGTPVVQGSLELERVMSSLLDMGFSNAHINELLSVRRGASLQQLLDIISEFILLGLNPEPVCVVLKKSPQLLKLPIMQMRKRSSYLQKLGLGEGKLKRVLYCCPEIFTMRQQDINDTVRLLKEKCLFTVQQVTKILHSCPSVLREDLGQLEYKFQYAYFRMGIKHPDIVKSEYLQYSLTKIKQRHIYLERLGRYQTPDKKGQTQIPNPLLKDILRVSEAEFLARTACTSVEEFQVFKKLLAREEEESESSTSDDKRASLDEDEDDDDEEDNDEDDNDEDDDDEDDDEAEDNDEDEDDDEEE
UniProt P03886, whole entry, looked up: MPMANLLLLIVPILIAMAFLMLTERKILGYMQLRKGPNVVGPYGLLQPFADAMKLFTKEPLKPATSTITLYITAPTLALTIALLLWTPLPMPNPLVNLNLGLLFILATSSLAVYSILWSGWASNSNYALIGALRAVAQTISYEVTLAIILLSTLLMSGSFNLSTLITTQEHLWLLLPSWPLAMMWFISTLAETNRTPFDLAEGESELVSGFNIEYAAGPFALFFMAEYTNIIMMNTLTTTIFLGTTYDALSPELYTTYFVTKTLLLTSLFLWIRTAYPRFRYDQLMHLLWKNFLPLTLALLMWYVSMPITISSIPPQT
UniProt Q96DR8: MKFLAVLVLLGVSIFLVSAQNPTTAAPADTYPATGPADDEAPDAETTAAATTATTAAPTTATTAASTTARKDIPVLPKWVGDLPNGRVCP
UniProt P60660, whole entry, looked up: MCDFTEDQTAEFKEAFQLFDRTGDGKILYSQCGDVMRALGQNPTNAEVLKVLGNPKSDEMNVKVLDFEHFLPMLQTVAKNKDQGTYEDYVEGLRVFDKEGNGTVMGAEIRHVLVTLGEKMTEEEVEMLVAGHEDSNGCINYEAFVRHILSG
UniProt Q9ULH7: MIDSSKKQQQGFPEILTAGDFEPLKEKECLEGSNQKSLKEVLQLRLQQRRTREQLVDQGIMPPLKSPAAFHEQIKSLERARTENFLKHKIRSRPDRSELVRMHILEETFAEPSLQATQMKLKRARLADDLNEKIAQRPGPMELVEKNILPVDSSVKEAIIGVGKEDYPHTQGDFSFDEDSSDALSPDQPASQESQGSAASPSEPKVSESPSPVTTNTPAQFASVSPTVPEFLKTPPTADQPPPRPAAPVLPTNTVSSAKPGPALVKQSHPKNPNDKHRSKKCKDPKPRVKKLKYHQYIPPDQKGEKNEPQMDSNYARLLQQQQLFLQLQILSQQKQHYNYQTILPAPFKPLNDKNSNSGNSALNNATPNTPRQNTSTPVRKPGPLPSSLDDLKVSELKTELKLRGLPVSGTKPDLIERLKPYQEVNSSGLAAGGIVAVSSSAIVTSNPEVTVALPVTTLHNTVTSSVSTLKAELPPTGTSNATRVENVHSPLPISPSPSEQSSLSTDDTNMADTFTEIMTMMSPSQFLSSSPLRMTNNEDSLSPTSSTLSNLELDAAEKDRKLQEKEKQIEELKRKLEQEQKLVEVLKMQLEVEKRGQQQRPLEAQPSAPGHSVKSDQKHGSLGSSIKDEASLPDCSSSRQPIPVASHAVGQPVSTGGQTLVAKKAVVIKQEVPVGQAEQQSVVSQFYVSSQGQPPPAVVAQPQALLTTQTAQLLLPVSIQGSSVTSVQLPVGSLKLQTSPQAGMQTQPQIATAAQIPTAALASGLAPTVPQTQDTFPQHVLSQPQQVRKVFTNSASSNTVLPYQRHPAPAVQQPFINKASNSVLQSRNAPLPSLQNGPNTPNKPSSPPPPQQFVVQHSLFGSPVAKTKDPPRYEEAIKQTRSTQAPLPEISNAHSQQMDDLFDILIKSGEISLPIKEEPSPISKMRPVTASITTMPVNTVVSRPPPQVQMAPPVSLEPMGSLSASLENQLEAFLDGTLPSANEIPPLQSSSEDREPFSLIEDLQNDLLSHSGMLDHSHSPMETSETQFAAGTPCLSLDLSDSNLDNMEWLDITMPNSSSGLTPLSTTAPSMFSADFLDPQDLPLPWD
UniProt Q9Y2Z2: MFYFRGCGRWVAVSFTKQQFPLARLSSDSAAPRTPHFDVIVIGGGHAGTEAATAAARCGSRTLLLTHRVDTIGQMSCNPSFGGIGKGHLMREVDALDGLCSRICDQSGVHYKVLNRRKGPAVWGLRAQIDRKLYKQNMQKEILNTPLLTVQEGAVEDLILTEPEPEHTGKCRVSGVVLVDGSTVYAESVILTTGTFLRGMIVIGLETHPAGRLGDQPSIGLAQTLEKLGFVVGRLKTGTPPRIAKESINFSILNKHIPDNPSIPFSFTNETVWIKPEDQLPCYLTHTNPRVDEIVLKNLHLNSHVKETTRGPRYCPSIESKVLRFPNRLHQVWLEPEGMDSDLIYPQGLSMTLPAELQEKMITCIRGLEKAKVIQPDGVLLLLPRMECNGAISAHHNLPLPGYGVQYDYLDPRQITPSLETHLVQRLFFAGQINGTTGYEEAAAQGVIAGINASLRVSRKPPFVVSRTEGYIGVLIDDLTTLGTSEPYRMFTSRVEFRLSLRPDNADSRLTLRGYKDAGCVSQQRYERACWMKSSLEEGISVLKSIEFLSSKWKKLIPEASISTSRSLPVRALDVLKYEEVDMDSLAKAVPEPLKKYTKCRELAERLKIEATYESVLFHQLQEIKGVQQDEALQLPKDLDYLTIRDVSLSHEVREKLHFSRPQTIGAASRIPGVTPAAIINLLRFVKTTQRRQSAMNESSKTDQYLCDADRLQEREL
UniProt Q9H2K0, whole entry, looked up: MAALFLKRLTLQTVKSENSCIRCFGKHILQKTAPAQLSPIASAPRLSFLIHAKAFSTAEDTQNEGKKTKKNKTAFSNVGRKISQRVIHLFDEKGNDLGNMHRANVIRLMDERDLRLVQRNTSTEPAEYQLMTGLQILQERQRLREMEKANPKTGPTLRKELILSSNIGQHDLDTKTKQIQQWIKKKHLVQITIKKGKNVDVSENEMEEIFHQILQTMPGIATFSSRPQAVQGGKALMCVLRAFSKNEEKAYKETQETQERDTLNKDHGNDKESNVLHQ
UniProt O43347: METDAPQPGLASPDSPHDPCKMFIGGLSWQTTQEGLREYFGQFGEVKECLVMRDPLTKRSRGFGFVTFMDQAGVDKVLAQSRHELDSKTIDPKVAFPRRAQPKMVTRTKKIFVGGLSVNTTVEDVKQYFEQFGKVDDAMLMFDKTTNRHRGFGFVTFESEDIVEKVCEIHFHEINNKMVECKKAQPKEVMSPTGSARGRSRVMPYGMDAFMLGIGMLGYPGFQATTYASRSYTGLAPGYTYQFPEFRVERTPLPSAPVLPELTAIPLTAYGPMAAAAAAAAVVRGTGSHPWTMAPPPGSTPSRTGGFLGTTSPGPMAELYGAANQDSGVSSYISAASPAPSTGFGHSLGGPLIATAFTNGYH

What was measured:
Assay in all cases: log2 fold change, soluble protein after heating vs DMSO (PISA); higher = thermal stabilisation; K562 cells, 10 uM, 30 min; active = over 0.2 and 3.5 SD of the protein, either way, in both replicates (recomputed)
saracatinib = compound: CN1CCN(CCOc2cc(OC3CCOCC3)c3c(Nc4c(Cl)ccc5c4OCO5)ncnc3c2)CC1 [saracatinib]
Method in brief: (§1)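 K562 cells at 2×10^6 cells/mL were treated with 10 μM compound for 30 min. Aliquots were heated for 3 min across 48°C-58°C, pooled, and extracted in PBS with 0.5% NP-40 at 4°C; soluble protein was the supernatant after 21,000xg for 90 min. Soluble protein was quantified by TMTpro 16plex LC-MS/MS with channel sums equalised, and reported as log2 fold change in thermal stability against DMSO controls, with values from duplicates.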

sotrastaurin = compound: CN1CCN(c2nc(C3=C(c4c[nH]c5ccccc45)C(=O)NC3=O)c3ccccc3n2)CC1 [sotrastaurin]
Method in brief: as §1

alvocidib = compound: CN1CC[C@H](c2c(O)cc(O)c3c(=O)cc(-c4ccccc4Cl)oc23)[C@H](O)C1 [alvocidib]
Method in brief: as §1

Tubastatin A = compound: CN1CCc2c(c3ccccc3n2Cc2ccc(C(=O)NO)cc2)C1 [Tubastatin A]
Method in brief: as §1

defactinib = compound: CNC(=O)c1ccc(Nc2ncc(C(F)(F)F)c(NCc3nccnc3N(C)S(C)(=O)=O)n2)cc1 [defactinib]
Method in brief: as §1

rucaparib = compound: CNCc1ccc(-c2[nH]c3cc(F)cc4c3c2CCNC4=O)cc1 [rucaparib]
Method in brief: as §1

[1] = compound: CNc1nc(-c2ccc3c(N)n[nH]c3c2)cc(N2C[C@@H](C(=O)NC3CCCCC3)CC[C@H]2C)n1
Method in brief: as §1

encorafenib = compound: COC(=O)N[C@@H](C)CNc1nccc(-c2cn(C(C)C)nc2-c2cc(Cl)cc(NS(C)(=O)=O)c2F)n1 [encorafenib]
Method in brief: as §1

[2] = compound: COC(=O)[C@H](CCSC)NC(=O)C1=C(C=C(C=C1)NC[C@H](CS)N)C2=CC=CC=C2
Method in brief: as §1

[3] = compound: COC1=CC=C(C=C1)CN2C=CC3=C2C=C(C=C3)C(=O)NO
Method in brief: as §1

filanesib = compound: CON(C)C(=O)N1N=C(c2cc(F)ccc2F)S[C@@]1(CCCN)c1ccccc1 [filanesib]
Method in brief: as §1

zotarolimus = compound: CO[C@H]1C[C@@H]2CC[C@@H](C)[C@@](O)(O2)C(=O)C(=O)N2CCCC[C@H]2C(=O)O[C@H]([C@H](C)C[C@@H]2CC[C@H](n3cnnn3)[C@H](OC)C2)CC(=O)[C@H](C)/C=C(\C)[C@@H](O)[C@@H](OC)C(=O)[C@H](C)C[C@H](C)/C=C/C=C/C=C/1C [zotarolimus]
Method in brief: as §1

idasanutlin = compound: COc1cc(C(=O)O)ccc1NC(=O)[C@@H]1N[C@@H](CC(C)(C)C)[C@](C#N)(c2ccc(Cl)cc2F)[C@H]1c1cccc(Cl)c1F [idasanutlin]
Method in brief: as §1

[4] = compound: COc1cc2nc(-c3cc(F)ccc3O)nc(N[C@@H]3CNC[C@H]3C(C)(C)O)c2cc1OC
Method in brief: as §1

gefitinib = compound: COc1cc2ncnc(Nc3ccc(F)c(Cl)c3)c2cc1OCCCN1CCOCC1 [gefitinib]
Method in brief: as §1

lapatinib = compound: CS(=O)(=O)CCNCc1ccc(-c2ccc3ncnc(Nc4ccc(OCc5cccc(F)c5)c(Cl)c4)c3c2)o1 [lapatinib]
Method in brief: as §1

pictilisib = compound: CS(=O)(=O)N1CCN(Cc2cc3nc(-c4cccc5[nH]ncc45)nc(N4CCOCC4)c3s2)CC1 [pictilisib]
Method in brief: as §1

[5] = compound: CNC(=O)C1=CC=CC=C1NC2=NC(=NC=C2Cl)NC3=C(C=C(C=C3)N4CCOCC4)OC
Method in brief: as §1

alisertib = compound: COc1cc(Nc2ncc3c(n2)-c2ccc(Cl)cc2C(c2c(F)cccc2OC)=NC3)ccc1C(=O)O [alisertib]
Method in brief: as §1

[6] = compound: COc1cccc2cc(-c3nc([C@H]4CC[C@H](C(=O)O)CC4)n4ncnc(N)c34)[nH]c12
Method in brief: as §1

Measured: log2 fold change

MRPS14 (UniProt O60783)
inactive: saracatinib -0.03 | sotrastaurin -0.002 | alvocidib 0.045 | Tubastatin A 0 | defactinib 0.14 | rucaparib 0.049 | [1] 0.12 | encorafenib -0.064 | [2] -0.116 | [3] -0.036 | filanesib 0.021 | zotarolimus 0.06 | idasanutlin -0.107 | [4] -0.045 | gefitinib 0.008 | lapatinib -0.077 | pictilisib 0.331

MYH14 isoform 2 (UniProt Q7Z406)
inactive: saracatinib 0.021 | sotrastaurin 0.008 | alvocidib 0.002 | Tubastatin A -0.008 | [5] -0.025 | defactinib -0.034 | rucaparib -0.053 | [1] 0.01 | encorafenib 0.014 | [2] 0.014 | [3] 0.059 | filanesib -0.046 | zotarolimus 0 | idasanutlin 0.009 | alisertib -0.048 | [4] 0.015 | gefitinib 0.026 | [6] -0.017 | lapatinib 0.01 | pictilisib 0.01

MTCH1 (UniProt Q9NZJ7)
inactive: saracatinib 0.045 | sotrastaurin 0.049 | alvocidib -0.051 | Tubastatin A -0.067 | [5] 0.042 | defactinib -0.001 | rucaparib -0.038 | [1] 0.03 | encorafenib 0.002 | [2] -0.018 | [3] -0.007 | filanesib -0.082 | zotarolimus 0.142 | idasanutlin -0.075 | alisertib -0.024 | [4] 0.056 | gefitinib 0.051 | [6] 0.033 | lapatinib 0.077 | pictilisib 0.055

MRPS9 (UniProt P82933)
inactive: saracatinib -0.064 | sotrastaurin -0.072 | Tubastatin A 0.04 | [5] 0.013 | defactinib 0.056 | rucaparib 0.087 | [1] 0.136 | encorafenib 0.05 | [2] -0.081 | [3] 0.009 | filanesib 0.007 | zotarolimus 0.065 | idasanutlin -0.16 | alisertib 0.076 | [4] -0.021 | gefitinib 0.084 | [6] 0.016 | lapatinib 0.096 | pictilisib -0.049

MRTFA (UniProt Q969V6)
inactive: saracatinib 0.081 | sotrastaurin -0.048 | alvocidib -0.115 | Tubastatin A 0.038 | [5] -0.013 | defactinib 0.186 | rucaparib -0.134 | [1] -0.058 | encorafenib -0.046 | [2] -0.017 | [3] 0.149 | filanesib -0.084 | zotarolimus 0.012 | idasanutlin 0.165 | alisertib 0.025 | [4] 0.064 | gefitinib -0.004 | [6] 0.015 | lapatinib -0.006 | pictilisib 0.06

MTMR1 (UniProt Q13613)
inactive: saracatinib -0.041 | sotrastaurin 0.05 | alvocidib -0.038 | Tubastatin A 0.012 | defactinib -0.011 | rucaparib 0.051 | [1] -0.089 | encorafenib 0.163 | [2] -0.024 | [3] 0.065 | filanesib 0.152 | zotarolimus -0.007 | idasanutlin 0.079 | alisertib -0.189 | [4] 0.054 | [6] 0.015 | lapatinib 0.015 | pictilisib 0.109

MTERF4 (UniProt Q7Z6M4)
inactive: saracatinib 0.177 | sotrastaurin 0.194 | alvocidib -0.059 | Tubastatin A -0.112 | [5] -0.012 | [1] 0.117 | [3] 0.1 | filanesib 0.063 | zotarolimus -0.076 | idasanutlin -0.068 | alisertib 0.149 | [4] 0.244 | gefitinib 0.016 | [6] -0.108 | lapatinib 0.118

MT-ND1 (UniProt P03886)
inactive: saracatinib 0.1 | sotrastaurin -0.005 | Tubastatin A 0.123 | [5] -0.025 | defactinib -0.068 | rucaparib -0.041 | [1] -0.11 | encorafenib 0.017 | [2] -0.058 | [3] -0.051 | filanesib 0.053 | zotarolimus 0.131 | idasanutlin -0.141 | alisertib -0.015 | [4] -0.152 | gefitinib 0.1 | [6] 0.051 | lapatinib -0.113

MUCL1 (UniProt Q96DR8)
inactive: saracatinib -0.042 | sotrastaurin -0.273 | alvocidib -0.327 | Tubastatin A 0.183 | [5] 0.109 | defactinib 0.001 | rucaparib 0.019 | [1] 0.415 | encorafenib -0.226 | [2] 0.256 | [3] 0.257 | filanesib -0.036 | zotarolimus -0.257 | idasanutlin 0.102 | alisertib 0.049 | [4] -0.058 | gefitinib 0.236 | [6] 0.108 | lapatinib -0.103 | pictilisib 0.264

MYL6 isoform 2 (UniProt P60660)
inactive: saracatinib -0.024 | sotrastaurin -0.076 | alvocidib -0.016 | Tubastatin A 0.063 | [5] 0.017 | defactinib -0.023 | rucaparib -0.045 | [1] -0.031 | encorafenib -0.008 | [2] -0.015 | [3] -0.005 | filanesib -0.036 | zotarolimus 0.003 | idasanutlin -0.022 | alisertib -0.018 | [4] 0.029 | gefitinib 0.001 | [6] -0.002 | lapatinib 0.021 | pictilisib 0.011

MRTFB isoform 5 (UniProt Q9ULH7)
inactive: saracatinib -0.017 | sotrastaurin -0.003 | alvocidib -0.004 | Tubastatin A -0.011 | [5] -0.018 | defactinib -0.062 | rucaparib -0.04 | [1] -0.083 | encorafenib 0.012 | [2] -0.006 | [3] 0.013 | filanesib 0.003 | zotarolimus 0.013 | idasanutlin 0.027 | alisertib -0.062 | [4] 0.035 | gefitinib -0.026 | [6] -0.034 | lapatinib -0.019 | pictilisib 0.015

MRPS21 (UniProt P82921)
inactive: saracatinib -0.193 | sotrastaurin 0.036 | Tubastatin A -0.056 | [5] 0.038 | defactinib -0.075 | rucaparib -0.016 | [1] 0.127 | encorafenib 0.045 | [2] -0.075 | [3] 0.007 | filanesib 0.032 | zotarolimus 0.026 | idasanutlin -0.293 | alisertib 0.043 | [4] -0.053 | gefitinib 0.019 | [6] 0.021 | lapatinib 0.261

MTO1 isoform 6 (UniProt Q9Y2Z2)
inactive: saracatinib -0.016 | sotrastaurin 0.001 | alvocidib -0.026 | Tubastatin A -0.043 | [5] 0.059 | defactinib 0.005 | rucaparib 0.232 | [1] -0.053 | encorafenib 0.006 | [2] -0.056 | [3] 0.003 | filanesib -0.021 | zotarolimus -0.022 | idasanutlin -0.099 | alisertib 0.093 | [4] 0.075 | gefitinib 0.075 | [6] -0.001 | lapatinib 0.013 | pictilisib 0.164

MSMO1 (UniProt Q15800)
inactive: saracatinib 0.087 | sotrastaurin 0.042 | alvocidib 0.014 | Tubastatin A 0.012 | [5] -0.015 | defactinib 0.045 | rucaparib -0.091 | [1] 0.019 | encorafenib 0.01 | [2] 0.028 | [3] -0.207 | filanesib -0.159 | zotarolimus -0.06 | idasanutlin -0.101 | alisertib -0.012 | [4] -0.119 | gefitinib 0.009 | [6] 0.06 | lapatinib 0.013 | pictilisib -0.048

Five successive entries from above:
MT-ND1 (UniProt P03886)
inactive: saracatinib 0.1 | sotrastaurin -0.005 | Tubastatin A 0.123 | [5] -0.025 | defactinib -0.068 | rucaparib -0.041 | [1] -0.11 | encorafenib 0.017 | [2] -0.058 | [3] -0.051 | filanesib 0.053 | zotarolimus 0.131 | idasanutlin -0.141 | alisertib -0.015 | [4] -0.152 | gefitinib 0.1 | [6] 0.051 | lapatinib -0.113

MUCL1 (UniProt Q96DR8)
inactive: saracatinib -0.042 | sotrastaurin -0.273 | alvocidib -0.327 | Tubastatin A 0.183 | [5] 0.109 | defactinib 0.001 | rucaparib 0.019 | [1] 0.415 | encorafenib -0.226 | [2] 0.256 | [3] 0.257 | filanesib -0.036 | zotarolimus -0.257 | idasanutlin 0.102 | alisertib 0.049 | [4] -0.058 | gefitinib 0.236 | [6] 0.108 | lapatinib -0.103 | pictilisib 0.264

MYL6 isoform 2 (UniProt P60660)
inactive: saracatinib -0.024 | sotrastaurin -0.076 | alvocidib -0.016 | Tubastatin A 0.063 | [5] 0.017 | defactinib -0.023 | rucaparib -0.045 | [1] -0.031 | encorafenib -0.008 | [2] -0.015 | [3] -0.005 | filanesib -0.036 | zotarolimus 0.003 | idasanutlin -0.022 | alisertib -0.018 | [4] 0.029 | gefitinib 0.001 | [6] -0.002 | lapatinib 0.021 | pictilisib 0.011

MRTFB isoform 5 (UniProt Q9ULH7)
inactive: saracatinib -0.017 | sotrastaurin -0.003 | alvocidib -0.004 | Tubastatin A -0.011 | [5] -0.018 | defactinib -0.062 | rucaparib -0.04 | [1] -0.083 | encorafenib 0.012 | [2] -0.006 | [3] 0.013 | filanesib 0.003 | zotarolimus 0.013 | idasanutlin 0.027 | alisertib -0.062 | [4] 0.035 | gefitinib -0.026 | [6] -0.034 | lapatinib -0.019 | pictilisib 0.015

MRPS21 (UniProt P82921)
inactive: saracatinib -0.193 | sotrastaurin 0.036 | Tubastatin A -0.056 | [5] 0.038 | defactinib -0.075 | rucaparib -0.016 | [1] 0.127 | encorafenib 0.045 | [2] -0.075 | [3] 0.007 | filanesib 0.032 | zotarolimus 0.026 | idasanutlin -0.293 | alisertib 0.043 | [4] -0.053 | gefitinib 0.019 | [6] 0.021 | lapatinib 0.261

Further results follow:

MTRR isoform 1 (UniProt Q9UBK8)
inactive: saracatinib -0.115 | sotrastaurin 0.109 | alvocidib -0.014 | Tubastatin A 0.08 | [5] -0.06 | defactinib -0.069 | rucaparib 0.051 | [1] 0.106 | encorafenib 0.032 | [2] -0.117 | [3] 0.04 | filanesib 0.043 | zotarolimus 0.031 | idasanutlin -0.025 | alisertib -0.047 | [4] 0.044 | gefitinib -0.014 | [6] -0.025 | lapatinib -0.023 | pictilisib 0.016

MTIF3 (UniProt Q9H2K0)
inactive: saracatinib -0.091 | sotrastaurin -0.205 | alvocidib -0.043 | [5] 0.064 | defactinib 0.032 | [1] 0.006 | [2] -0.021 | filanesib 0.04 | zotarolimus 0.174 | idasanutlin 0.153 | gefitinib 0.243 | pictilisib -0.192

MSI1 (UniProt O43347)
inactive: saracatinib 0.121 | sotrastaurin 0.072 | alvocidib 0.157 | Tubastatin A -0.004 | [5] -0.009 | defactinib 0.18 | rucaparib 0.233 | [1] -0.044 | encorafenib 0.061 | [2] 0.026 | [3] 0.023 | filanesib 0.048 | zotarolimus -0.086 | idasanutlin 0.039 | alisertib -0.005 | [4] 0.01 | gefitinib -0.035 | [6] -0.048 | lapatinib -0.015 | pictilisib -0.048
